Test results: PubChem BioAssay (EPA / NIEHS)
Inconclusive results, whose numbers are uncertain, are shown with a selection of clear calls. Where the call is inconclusive, the potency comes from a doubtful curve fit. Active and inactive are the calls of the source. The calls were made as follows: active = hit-call score of the fitted dose curve at least 0.9, where 1 is the maximum; inconclusive = response in the unintended direction; inactive = score below 0.9.

The chains behind the UniProt entries cited, without tags or fusion partners. Where a name states a change or a piece, a line headed by the entry shows the natural chain unless it says otherwise.
UniProt P35916, whole entry, looked up: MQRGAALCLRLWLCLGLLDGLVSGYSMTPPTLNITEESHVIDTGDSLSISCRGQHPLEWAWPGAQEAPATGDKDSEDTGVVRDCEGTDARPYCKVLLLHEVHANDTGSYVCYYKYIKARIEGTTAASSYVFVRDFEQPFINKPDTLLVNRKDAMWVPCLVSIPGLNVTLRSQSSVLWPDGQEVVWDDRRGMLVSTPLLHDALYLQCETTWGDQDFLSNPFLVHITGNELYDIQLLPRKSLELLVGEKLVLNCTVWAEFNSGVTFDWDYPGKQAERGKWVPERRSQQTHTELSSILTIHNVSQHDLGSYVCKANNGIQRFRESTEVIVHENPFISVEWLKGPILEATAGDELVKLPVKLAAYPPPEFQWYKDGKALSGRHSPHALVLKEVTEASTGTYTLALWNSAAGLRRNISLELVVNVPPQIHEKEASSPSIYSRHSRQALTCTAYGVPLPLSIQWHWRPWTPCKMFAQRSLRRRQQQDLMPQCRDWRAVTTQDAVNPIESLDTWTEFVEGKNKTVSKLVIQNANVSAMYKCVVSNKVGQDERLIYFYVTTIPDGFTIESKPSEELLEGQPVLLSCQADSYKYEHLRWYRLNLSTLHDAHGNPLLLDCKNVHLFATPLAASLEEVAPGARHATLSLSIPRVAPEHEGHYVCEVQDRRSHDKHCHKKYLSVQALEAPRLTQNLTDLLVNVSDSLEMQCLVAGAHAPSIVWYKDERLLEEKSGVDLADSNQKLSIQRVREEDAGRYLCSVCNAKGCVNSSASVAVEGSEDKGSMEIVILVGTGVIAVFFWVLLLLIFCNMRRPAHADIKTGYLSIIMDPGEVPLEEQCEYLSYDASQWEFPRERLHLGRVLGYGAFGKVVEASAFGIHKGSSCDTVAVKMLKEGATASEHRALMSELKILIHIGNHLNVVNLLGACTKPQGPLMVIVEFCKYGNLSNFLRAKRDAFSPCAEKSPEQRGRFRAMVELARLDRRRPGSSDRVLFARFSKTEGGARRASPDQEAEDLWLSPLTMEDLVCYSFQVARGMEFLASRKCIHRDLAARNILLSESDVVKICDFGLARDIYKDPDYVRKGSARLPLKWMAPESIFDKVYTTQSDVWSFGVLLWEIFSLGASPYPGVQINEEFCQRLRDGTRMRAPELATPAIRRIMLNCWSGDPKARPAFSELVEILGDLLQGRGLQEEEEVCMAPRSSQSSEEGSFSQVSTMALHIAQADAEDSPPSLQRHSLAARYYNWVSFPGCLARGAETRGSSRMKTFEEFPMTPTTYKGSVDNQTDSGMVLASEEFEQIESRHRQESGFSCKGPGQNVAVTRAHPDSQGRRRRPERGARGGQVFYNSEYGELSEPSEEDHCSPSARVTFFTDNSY
UniProt P29476, whole entry, looked up: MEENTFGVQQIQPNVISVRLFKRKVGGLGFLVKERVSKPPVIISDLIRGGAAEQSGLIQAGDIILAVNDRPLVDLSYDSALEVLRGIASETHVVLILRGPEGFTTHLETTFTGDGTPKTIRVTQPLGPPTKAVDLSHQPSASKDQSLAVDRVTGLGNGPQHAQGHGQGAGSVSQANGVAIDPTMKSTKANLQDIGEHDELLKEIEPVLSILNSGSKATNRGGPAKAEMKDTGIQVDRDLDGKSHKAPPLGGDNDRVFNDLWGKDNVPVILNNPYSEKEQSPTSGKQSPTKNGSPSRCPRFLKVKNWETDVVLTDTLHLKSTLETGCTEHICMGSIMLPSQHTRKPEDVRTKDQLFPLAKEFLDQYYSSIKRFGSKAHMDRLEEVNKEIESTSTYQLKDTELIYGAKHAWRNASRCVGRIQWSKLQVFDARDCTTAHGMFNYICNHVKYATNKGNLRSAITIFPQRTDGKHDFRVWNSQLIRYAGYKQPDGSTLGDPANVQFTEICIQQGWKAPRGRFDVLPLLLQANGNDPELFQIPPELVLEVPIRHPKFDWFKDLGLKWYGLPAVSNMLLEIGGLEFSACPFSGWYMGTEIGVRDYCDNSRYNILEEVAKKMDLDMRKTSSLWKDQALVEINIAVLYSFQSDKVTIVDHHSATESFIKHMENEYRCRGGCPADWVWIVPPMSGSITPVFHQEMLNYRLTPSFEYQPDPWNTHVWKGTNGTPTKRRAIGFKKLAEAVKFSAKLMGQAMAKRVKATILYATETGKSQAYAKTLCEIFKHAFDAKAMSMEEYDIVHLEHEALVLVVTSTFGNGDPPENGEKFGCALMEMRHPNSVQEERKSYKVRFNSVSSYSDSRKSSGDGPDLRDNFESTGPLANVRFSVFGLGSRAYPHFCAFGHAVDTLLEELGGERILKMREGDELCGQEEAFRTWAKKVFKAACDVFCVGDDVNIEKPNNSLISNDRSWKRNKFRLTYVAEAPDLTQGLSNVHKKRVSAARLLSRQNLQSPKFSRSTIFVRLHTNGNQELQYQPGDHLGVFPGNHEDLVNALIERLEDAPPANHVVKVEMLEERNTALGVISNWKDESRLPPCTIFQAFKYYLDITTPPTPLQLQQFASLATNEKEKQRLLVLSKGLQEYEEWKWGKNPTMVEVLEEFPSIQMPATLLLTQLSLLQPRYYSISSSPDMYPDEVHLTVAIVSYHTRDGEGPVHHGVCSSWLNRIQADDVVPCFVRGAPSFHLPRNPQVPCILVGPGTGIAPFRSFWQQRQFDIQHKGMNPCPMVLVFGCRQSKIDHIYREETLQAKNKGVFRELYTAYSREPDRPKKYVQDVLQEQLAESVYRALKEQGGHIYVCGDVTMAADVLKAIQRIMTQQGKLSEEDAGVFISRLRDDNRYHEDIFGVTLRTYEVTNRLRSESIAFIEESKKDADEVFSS
UniProt P17948, whole entry, looked up: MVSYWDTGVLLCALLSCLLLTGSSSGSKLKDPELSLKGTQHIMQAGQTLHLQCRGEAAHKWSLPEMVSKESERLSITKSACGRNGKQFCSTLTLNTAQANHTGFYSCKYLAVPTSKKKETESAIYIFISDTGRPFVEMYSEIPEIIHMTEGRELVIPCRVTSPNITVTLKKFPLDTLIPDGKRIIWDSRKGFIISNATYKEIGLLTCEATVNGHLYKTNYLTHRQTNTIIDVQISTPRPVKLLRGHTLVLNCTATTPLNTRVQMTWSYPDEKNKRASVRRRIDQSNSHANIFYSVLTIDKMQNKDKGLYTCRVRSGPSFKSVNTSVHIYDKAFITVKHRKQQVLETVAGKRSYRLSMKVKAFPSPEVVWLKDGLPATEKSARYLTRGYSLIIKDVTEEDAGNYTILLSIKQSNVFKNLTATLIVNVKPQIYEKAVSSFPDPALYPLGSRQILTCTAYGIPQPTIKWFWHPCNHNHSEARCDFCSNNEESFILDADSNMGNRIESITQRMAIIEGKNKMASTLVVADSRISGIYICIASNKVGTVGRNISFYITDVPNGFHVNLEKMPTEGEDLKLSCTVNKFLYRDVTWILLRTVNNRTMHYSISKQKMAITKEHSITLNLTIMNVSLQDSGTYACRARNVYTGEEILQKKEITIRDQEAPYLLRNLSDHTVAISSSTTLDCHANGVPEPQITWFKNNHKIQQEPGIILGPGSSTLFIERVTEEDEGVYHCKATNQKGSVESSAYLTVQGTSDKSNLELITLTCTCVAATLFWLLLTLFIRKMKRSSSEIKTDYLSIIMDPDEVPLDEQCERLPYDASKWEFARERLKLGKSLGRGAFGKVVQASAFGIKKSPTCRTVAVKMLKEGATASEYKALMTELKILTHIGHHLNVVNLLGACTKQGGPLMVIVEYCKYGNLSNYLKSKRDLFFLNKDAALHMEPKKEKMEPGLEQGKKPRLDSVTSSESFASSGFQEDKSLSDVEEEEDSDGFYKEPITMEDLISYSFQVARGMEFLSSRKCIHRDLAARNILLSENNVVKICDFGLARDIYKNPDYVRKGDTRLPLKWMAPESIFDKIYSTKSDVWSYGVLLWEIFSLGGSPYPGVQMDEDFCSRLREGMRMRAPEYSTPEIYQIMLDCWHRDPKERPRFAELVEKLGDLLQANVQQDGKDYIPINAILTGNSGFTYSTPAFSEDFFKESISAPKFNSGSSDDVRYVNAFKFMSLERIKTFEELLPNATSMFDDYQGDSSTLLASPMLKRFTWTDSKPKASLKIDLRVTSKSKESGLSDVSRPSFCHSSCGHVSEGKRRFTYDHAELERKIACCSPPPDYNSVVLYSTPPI
UniProt P79208, whole entry, looked up: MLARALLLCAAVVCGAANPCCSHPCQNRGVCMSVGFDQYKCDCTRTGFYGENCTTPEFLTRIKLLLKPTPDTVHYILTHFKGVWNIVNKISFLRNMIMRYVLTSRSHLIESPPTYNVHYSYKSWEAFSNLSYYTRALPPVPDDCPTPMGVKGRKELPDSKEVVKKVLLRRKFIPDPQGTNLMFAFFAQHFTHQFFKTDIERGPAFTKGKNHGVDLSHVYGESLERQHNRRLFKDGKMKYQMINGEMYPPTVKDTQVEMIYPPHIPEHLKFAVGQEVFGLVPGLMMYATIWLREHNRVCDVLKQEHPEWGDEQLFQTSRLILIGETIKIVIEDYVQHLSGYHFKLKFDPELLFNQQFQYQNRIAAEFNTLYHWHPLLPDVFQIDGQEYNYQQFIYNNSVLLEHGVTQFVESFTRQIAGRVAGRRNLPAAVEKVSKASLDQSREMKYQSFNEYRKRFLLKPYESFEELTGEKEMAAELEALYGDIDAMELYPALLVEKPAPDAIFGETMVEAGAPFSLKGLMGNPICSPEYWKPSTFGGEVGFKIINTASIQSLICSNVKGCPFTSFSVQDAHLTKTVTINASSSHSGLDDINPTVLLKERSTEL
UniProt P05979, whole entry, looked up: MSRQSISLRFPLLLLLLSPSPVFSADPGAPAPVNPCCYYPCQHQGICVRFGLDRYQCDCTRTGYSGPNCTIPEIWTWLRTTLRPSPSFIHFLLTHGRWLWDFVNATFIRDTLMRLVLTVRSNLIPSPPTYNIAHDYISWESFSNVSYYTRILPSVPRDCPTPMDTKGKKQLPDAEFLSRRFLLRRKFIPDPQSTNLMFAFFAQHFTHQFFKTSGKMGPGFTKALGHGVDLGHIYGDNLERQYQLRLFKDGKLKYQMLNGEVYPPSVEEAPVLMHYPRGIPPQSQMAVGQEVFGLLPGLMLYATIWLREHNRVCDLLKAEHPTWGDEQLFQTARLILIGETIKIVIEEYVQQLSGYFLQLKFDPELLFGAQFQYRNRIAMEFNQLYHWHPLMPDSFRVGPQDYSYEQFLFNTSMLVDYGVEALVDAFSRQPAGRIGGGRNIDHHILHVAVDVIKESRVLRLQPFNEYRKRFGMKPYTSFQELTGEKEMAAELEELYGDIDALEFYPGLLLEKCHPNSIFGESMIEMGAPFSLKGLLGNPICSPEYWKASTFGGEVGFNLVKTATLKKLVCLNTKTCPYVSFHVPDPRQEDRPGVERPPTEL
UniProt P00567: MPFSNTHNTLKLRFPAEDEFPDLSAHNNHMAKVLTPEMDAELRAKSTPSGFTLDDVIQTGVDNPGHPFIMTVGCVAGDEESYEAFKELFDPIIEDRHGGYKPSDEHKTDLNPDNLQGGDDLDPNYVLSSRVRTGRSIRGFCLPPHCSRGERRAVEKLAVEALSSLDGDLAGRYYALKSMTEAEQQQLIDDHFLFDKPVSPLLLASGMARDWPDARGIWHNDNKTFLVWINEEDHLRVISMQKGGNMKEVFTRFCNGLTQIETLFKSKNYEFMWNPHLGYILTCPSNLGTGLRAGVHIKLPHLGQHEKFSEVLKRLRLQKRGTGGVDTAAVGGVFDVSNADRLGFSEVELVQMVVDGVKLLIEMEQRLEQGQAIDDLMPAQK

Columns and labels:
[1] = biological target: human Vascular Endothelial Growth Factor Receptor 3 (VEGFR3), FLT4 (gene 2324) (UniProt P35916); assay: NVS_ENZ_hVEGFR3: NovaScreen (NVS) Enzymatic Assay for human Vascular Endothelial Growth Factor Receptor 3 (VEGFR3) (AID 2283229)
How it was run: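 Chemicals first run in duplicate at 25 uM, with actives re-tested in concentration series to a top of 50 uM. Recombinant VEGFR3 activity measured after 1 h via fluorescence with mobility-shift product separation; inhibition fitted relative to DMSO.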

[2] = biological target: human Vascular Endothelial Growth Factor Receptor 2 (VEGFR2), KDR (gene 3791) (UniProt P35968); assay: NVS_ENZ_hVEGFR2: NovaScreen (NVS) Enzymatic Assay for human Vascular Endothelial Growth Factor Receptor 2 (VEGFR2) (AID 2283230)
How it was run: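 Cell-free recombinant VEGFR2 kinase, fluorescent substrate with electrophoretic mobility-shift separation; read 1 h after dosing. Screened at 25 uM in duplicate, hits to concentration-response up to 50 uM; loss-of-signal versus DMSO.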

[3] = biological target: rat Constitutive Nitric Oxide Synthase (CNOS), Nos1 (gene 24598) (UniProt P29476); assay: NVS_ENZ_rCNOS: NovaScreen (NVS) Enzymatic Assay for rat Constitutive Nitric Oxide Synthase (CNOS) (AID 2283236)
How it was run: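 Single 25 uM duplicate screen, then concentration series to 50 uM for chemicals meeting threshold. Rat brain membrane-derived CNOS activity detected radiometrically by filtration and scintillation counting, 1 h after compound addition; DMSO as baseline.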

[4] = biological target: human Vascular Endothelial Growth Factor Receptor 1 (VEGFR1), FLT1 (gene 2321) (UniProt P17948); assay: NVS_ENZ_hVEGFR1: NovaScreen (NVS) Enzymatic Assay for human Vascular Endothelial Growth Factor Receptor 1 (VEGFR1) (AID 2283226)
How it was run: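 Kinase activity of recombinant human VEGFR1 was read by fluorescence after electrophoretic separation of product from substrate, 1 h post-dosing; initial duplicate single-point testing at 25 uM, followed by concentration-series follow-up, with DMSO as baseline.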

[5] = biological target: sheep Cyclooxygenase-2 (Cox2), PTGS2 (gene 443460) (UniProt P79208); assay: NVS_ENZ_oCOX2: NovaScreen (NVS) Enzymatic Assay for sheep Cyclooxygenase-2 (Cox2) (AID 2283231)
Experimental: NVS_ENZ_oCOX2 is a biochemical, single-readout assay that uses extracted gene-proteins from Ovine placenta in a tissue-based cell-free assay. Measurements were taken 0.66 hour after chemical dosing in a 96-well plate.NVS_ENZ_oCOX2 is one of one assay component(s) measured or calculated from the NVS_ENZ_oCOX2 assay. It is designed to make measurements of enzyme activity, a form of enzyme reporter, as detected with absorbance signals by Colorimetric technology.Data from the assay component NVS_ENZ_oCOX2 was analyzed into 1 assay endpoint. This assay endpoint, NVS_ENZ_oCOX2, was analyzed in the positive analysis fitting direction relative to DMSO as the negative control and baseline of activity. Using a type of enzyme reporter, loss-of-signal activity can be used to understand changes in the enzymatic activity as they relate to the gene PTGS2. Furthermore, this assay endpoint can be referred to as a primary readout, because this assay has produced multiple assay endpoints where this one serves a enzymatic activity function. To generalize the intended target to other relatable targets, this assay endpoint is annotated to the oxidoreductase intended target family, where the subfamily is cyclooxygenase.
Binding assays used specific radioligands (tritiated, iodinated) with non-radioactive competitive displacement ligands in agonist or antagonist protocols (as indicated) and various reference compounds and inhibitors to titrate specific binding to receptors and transporters. Most enzyme assays (CYPs, kinases, phosphatases, proteases, HDACs) used recombinant protein and specific substrates (fluorescence mostly, some colorimetric and radioactive) and inhibitors, followed by a biochemical separation of substrate and product. All assays for the biochemical HTS were initially run in duplicate at a single concentration (10 uM for CYP450 assays and 25 uM for all others). Assay-chemical combinations meeting a pre-defined threshold (e.g., 30% inhibition and other criteria defined below) were then run in singleton concentration-response format with maximum concentration of 20 uM for CYPs and 50 uM for all others. Each assay was run with positive and negative controls, and concurrent controls on every plate. The follow-up (secondary) screen tested active chemical-pairs in concentration series, as well as a few additional assays not tested in the primary screen, some selected negative inactives, and several cases re-run in the concentration series for confirmatory purposes.

[6] = tested on: bovine Angiotensin II Receptor Type 2 (AT2), gene 407157; assay: NVS_GPCR_bAT2: NovaScreen (NVS) G Protein-Coupled Receptor Assay for bovine Angiotensin II Receptor Type 2 (AT2) (AID 2283240)
How it was run: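 Radioligand displacement on bovine cerebellar membranes, 1 hour incubation, filter-based scintillation counting; loss of signal vs DMSO. Duplicate single-point screen at 25 uM, then concentration-response to 50 uM maximum.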

[7] = biological target: sheep Cyclooxygenase-1 (Cox1), PTGS1 (gene 443551) (UniProt P05979); assay: NVS_ENZ_oCOX1: NovaScreen (NVS) Enzymatic Assay for sheep Cyclooxygenase-1 (Cox1) (AID 2283239);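 also: actives reduce cyclooxygenase activity so potencies are for inhibitors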
How it was run: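 Tested in duplicate at 25 uM, then in concentration series if active, against seminal vesicle extract from sheep. Enzyme activity was measured colorimetrically at 0.66 hour and normalised to DMSO.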

[8] = biological target: rabbit Imidazoline 2 Central (I2C), CKB (gene 100009085) (UniProt P00567); assay: NVS_ENZ_rabI2C: NovaScreen (NVS) Enzymatic Assay for rabbit Imidazoline 2 Central (I2C) (AID 2283228)
How it was run: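 Rabbit brain membranes, cell-free; readout by filter-based scintillation counting 1.5 hours after dosing, loss of signal vs DMSO. Initial duplicate test at 25 uM, then concentration-response with 50 uM top concentration.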

O=C(O)c1cccc(Oc2ccccc2)c1
outcome [1]: inactive
AC50 [2]: inconclusive: 4.96 µM

Cc1ccccc1Cl
AC50 [3]: inconclusive: 45.1 µM

CCCCCCCCCCCCCC[P+](CCCC)(CCCC)CCCC
AC50 [4]: active: 10 µM
AC50 [1]: active: 17.5 µM
AC50 [5]: active: 5.19 µM

CN(C[C@@H](CC[N+]12CCC(C3CCCCC3)(CC1)CC2)c1ccc(Cl)c(Cl)c1)C(=O)c1cc(C(F)(F)F)cc(C(F)(F)F)c1
AC50 [2]: inconclusive: 25 µM
AC50 [6]: active: 36.7 µM

COc1ccc(OC(F)(F)F)cc1CN[C@H]1CCCN[C@H]1c1ccccc1
outcome [4]: inactive
AC50 [1]: inconclusive: 25 µM

COCCO
AC50 [4]: inconclusive: 0.364 µM
outcome [4]: inactive
outcome [1]: inactive
AC50 [2]: inconclusive: 7.73 µM

CCCCC(CC)C(=O)OCCOCCOCCOC(=O)C(CC)CCCC (centres undefined)
outcome [1]: inactive
AC50 [3]: active: 5.94 µM

COc1ccc2sc(C(=O)Nc3nnn[nH]3)c(OC(C)C)c2c1
AC50 [1]: inconclusive: 0.117 µM

O=[N+]([O-])c1cccc(Cl)c1
outcome [4]: inactive

OCC(CO)(CO)COCC(CO)(CO)CO
AC50 [4]: inconclusive: 1.7 µM

CN(C)c1ccc(C(=C2C=CC(=[N+](C)C)C=C2)c2ccc(N(C)C)cc2)cc1
AC50 [2]: active: 0.572 µM

CC(C)CCCCCCc1ccc(O)cc1
AC50 [2]: inconclusive: 25 µM

CCCCCCCCCCCCCCCC[N+](C)(C)CC
outcome [4]: inactive
AC50 [7]: inconclusive: 6.51 µM

CC(=O)CCC=C(C)C
AC50 [4]: inconclusive: 25.2 µM

CCCCCCCCCCCCCCCC[N+](C)(C)Cc1ccccc1
outcome [4]: inactive
AC50 [7]: inconclusive: 0.97 µM

c1ccc2ccccc2c1
AC50 [4]: inconclusive: 11.5 µM
outcome [2]: inactive

CCOC(=O)O[C@H](C)OC(=O)c1ccc2c(c1)cc(C(=O)NC1CCN(C(C)C)CC1)n2Cc1cc(-c2ccc(Cl)s2)on1
AC50 [2]: inconclusive: 11.5 µM

O=c1[nH]cnc2c1ncn2[C@H]1CC[C@@H](CO)O1
AC50 [2]: inconclusive: 1.25 µM

CCc1nc(N)nc(N)c1-c1ccc(Cl)cc1
AC50 [8]: active: 2.83 µM

N#CSCSc1nc2ccccc2s1
AC50 [4]: inconclusive: 0.209 µM
AC50 [1]: inconclusive: 25 µM
outcome [2]: inactive

CCN(Cc1cccnc1)C(=O)c1cccc(Cl)c1[C@]1(C)C(=O)N(Cc2ccc(OC)cc2OC)c2ccc(Cl)cc21
outcome [2]: inactive

CC(C)CC(=O)O
AC50 [4]: inconclusive: 10.8 µM
AC50 [7]: active: 25 µM

CC[C@H](C)C(=O)O[C@H]1C[C@@H](C)C=C2C=C[C@H](C)[C@H](CC[C@@H]3C[C@@H](O)CC(=O)O3)[C@H]21
outcome [4]: inactive
AC50 [5]: active: 8.83 µM

COC(=O)c1c(Cl)c(Cl)c(C(=O)OC)c(Cl)c1Cl
AC50 [2]: inconclusive: 1.44 µM

CCOC(=O)c1ccc(O)cc1
AC50 [8]: inconclusive: 0.0921 µM

C=CCCCCCCCCC(=O)O
AC50 [2]: inconclusive: 6.14 µM

Oc1cc2ccccc2c2ccccc12
AC50 [2]: active: 7.7 µM

CCc1c(C(=O)NN2CCCCC2)nn(-c2ccc(Cl)cc2Cl)c1-c1ccc(Br)cc1
outcome [4]: inactive
AC50 [1]: inconclusive: 25 µM
outcome [2]: inactive

CCCCOC(=O)c1ccc(O)cc1
outcome [2]: inactive

CCOC(=O)/C=C\C(=O)OCC
AC50 [4]: inconclusive: 6.66 µM
AC50 [7]: inconclusive: 0.318 µM

O=C(O)Cc1cc(I)c(Oc2cc(I)c(O)c(I)c2)c(I)c1
outcome [4]: inactive
AC50 [8]: inconclusive: 16.8 µM
AC50 [6]: inconclusive: 16.8 µM

CC(C)(c1ccc(O)cc1)c1ccc(O)cc1
outcome [4]: inactive
outcome [1]: inactive

O=C(Nc1ccccc1SSc1ccccc1NC(=O)c1ccccc1)c1ccccc1
AC50 [4]: inconclusive: 6.18 µM

NC(=NCCCCCCN=C(N)/N=C(\N)Nc1ccc(Cl)cc1)/N=C(\N)Nc1ccc(Cl)cc1
AC50 [4]: active: 27.6 µM

Cc1ccc(-c2cc(C(F)(F)F)nn2-c2ccc(S(N)(=O)=O)cc2)cc1
AC50 [2]: inconclusive: 25 µM

O=C(O)CC(O)(CC(=O)O)C(=O)O
AC50 [1]: inconclusive: 3.27 µM

O=C(O)c1ccc2c(c1)nc(C(=O)NC1CCN(C3CC3)CC1)n2Cc1cc(-c2ccc(Cl)s2)on1
AC50 [1]: inconclusive: 0.0151 µM

CCCCCCOCCO
outcome [2]: inactive

O=C(O)c1[nH]n(-c2ccc(S(=O)(=O)O)cc2)c(=O)c1N=Nc1ccc(S(=O)(=O)O)cc1
outcome [8]: inactive

C[C@]12C=CC(=O)C=C1CC[C@H]1[C@@H]3C[C@@H](O)[C@](O)(C(=O)CO)[C@@]3(C)C[C@H](O)[C@@]12F
AC50 [5]: inconclusive: 12.2 µM

O=c1ccc2ccccc2o1
AC50 [5]: inconclusive: 25 µM

O=C(O)Cn1c(=O)n(Cc2ccc(Br)cc2F)c(=O)c2ccc(Cl)cc21
outcome [6]: inactive
